From PMC11744579
Results are given in words; binding and its absence hold for the method and conditions named. Binding seen in cells or lysates may run through a third protein. Some binding calls cover weakened binding; strength is not graded here.

Sequences of proteins named here, by UniProt entry; tags and fusion partners are left off.
UniProt O14746: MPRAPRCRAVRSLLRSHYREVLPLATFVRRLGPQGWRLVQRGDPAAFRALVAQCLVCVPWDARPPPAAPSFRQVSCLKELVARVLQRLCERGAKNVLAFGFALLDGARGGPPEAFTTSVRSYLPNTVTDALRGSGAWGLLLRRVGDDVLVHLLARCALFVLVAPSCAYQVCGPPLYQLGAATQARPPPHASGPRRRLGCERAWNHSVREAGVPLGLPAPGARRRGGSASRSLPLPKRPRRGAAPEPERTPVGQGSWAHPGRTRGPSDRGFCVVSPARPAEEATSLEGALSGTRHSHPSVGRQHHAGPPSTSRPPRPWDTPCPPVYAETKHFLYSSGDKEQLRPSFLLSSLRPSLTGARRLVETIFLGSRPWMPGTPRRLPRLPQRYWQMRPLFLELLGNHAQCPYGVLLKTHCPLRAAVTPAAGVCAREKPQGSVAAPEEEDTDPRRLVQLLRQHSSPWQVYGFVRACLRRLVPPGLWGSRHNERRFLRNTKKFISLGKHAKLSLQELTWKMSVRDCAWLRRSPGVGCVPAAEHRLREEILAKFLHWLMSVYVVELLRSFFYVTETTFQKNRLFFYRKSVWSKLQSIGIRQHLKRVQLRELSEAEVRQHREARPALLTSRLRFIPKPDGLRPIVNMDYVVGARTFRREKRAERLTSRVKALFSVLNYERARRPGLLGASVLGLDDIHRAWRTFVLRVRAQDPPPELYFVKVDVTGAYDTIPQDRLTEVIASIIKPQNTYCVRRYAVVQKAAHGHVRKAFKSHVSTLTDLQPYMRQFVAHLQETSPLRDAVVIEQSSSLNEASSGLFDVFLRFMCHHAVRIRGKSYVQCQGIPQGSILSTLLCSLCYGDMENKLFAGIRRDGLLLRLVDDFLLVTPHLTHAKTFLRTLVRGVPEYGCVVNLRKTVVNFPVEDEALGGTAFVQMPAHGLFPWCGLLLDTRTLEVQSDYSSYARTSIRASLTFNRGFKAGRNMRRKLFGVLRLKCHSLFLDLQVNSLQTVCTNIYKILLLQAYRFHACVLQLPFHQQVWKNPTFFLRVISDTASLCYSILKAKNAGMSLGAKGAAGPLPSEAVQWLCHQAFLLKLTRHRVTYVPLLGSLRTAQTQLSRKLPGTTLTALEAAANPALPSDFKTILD

Biological target: telomerase reverse transcriptase (TERT) (UniProt O14746)
Assay: co-IP; HEK293T cells transfected with TERT-Flag and TRIM43-HA or SYVN1-HA, with or without pEGFP-CagA; lysis in EBC buffer (50 mM Tris pH 7.5, 120 mM NaCl, 0.5% NP-40); anti-HA or anti-Flag agarose beads, 4 °C, 3 h; washed with NETN buffer; western blot

binding: binds
B1: TRIM43 (enzyme, UniProt Q96BQ3 1-446)
chain: MDSDFSHAFQKELTCVICLNYLVDPVTICCGHSFCRPCLCLSWEEAQSPANCPACREPSPKMDFKTNILLKNLVTIARKASLWQFLSSEKQICGTHRQTKKMFCDMDKSLLCLLCSNSQEHGAHKHHPIEEAAEEHREKLLKQMRILWKKIQENQRNLYEEGRTAFLWRGNVVLRAQMIRNEYRKLHPVLHKEEKQHLERLNKEYQEIFQQLQRSWVKMDQKSKHLKEMYQELMEMCHKPDVELLQDLGDIVARSESVLLHMPQPVNPELTAGPITGLVYRLNRFRVEISFHFEVTNHNIRLFEDVRSWMFRRGPLNSDRSDYFAAWGARVFSFGKHYWELDVDNSCDWALGVCNNSWIRKNSTMVNSEDIFLLLCLKVDNHFNLLTTSPVFPHYIEKPLGRVGVFLDFESGSVSFLNVTKSSLIWSYPAGSLTFPVRPFFYTGHR
